Reference: paper PMC5566433
No constants are given. Whether binding was seen depends on the method and setting. Binding seen in cells or lysates may run through a third protein. Binding can be weak; no strength is given. Blank lines part the entries; values can stand above or below the molecule they belong to.

Columns and labels:
[1] = biological target: T1, neuroserpin (rat retina) (rat (endogenous in retina)) (UniProt Q9JLD2); assay: co-IP; anti-neuroserpin antibody cross-linked to sepharose beads (DMP); human (control, glaucoma) or rat (control, high IOP) retinal lysates in 20 mM HEPES pH 7.4, 1% Triton X-100; eluted with 0.2 M Gly-HCl pH 2.5, 0.5 M NaCl; non-reducing western blot for plasmin and neuroserpin; higher molecular mass complex band in glaucoma samples
T1 sequence: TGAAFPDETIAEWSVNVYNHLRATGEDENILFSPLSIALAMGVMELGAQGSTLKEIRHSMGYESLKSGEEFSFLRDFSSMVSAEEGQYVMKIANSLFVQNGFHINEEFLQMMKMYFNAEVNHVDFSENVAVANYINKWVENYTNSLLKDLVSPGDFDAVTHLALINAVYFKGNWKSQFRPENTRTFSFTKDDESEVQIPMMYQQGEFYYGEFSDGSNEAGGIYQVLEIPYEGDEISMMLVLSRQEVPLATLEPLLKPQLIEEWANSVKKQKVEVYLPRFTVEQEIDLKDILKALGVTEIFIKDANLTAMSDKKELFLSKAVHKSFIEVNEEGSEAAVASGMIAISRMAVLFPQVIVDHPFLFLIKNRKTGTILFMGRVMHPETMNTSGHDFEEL

[2] = biological target: T2, neuroserpin (human retina) (human (endogenous in retina)) (UniProt Q99574); assay: as above
T2 sequence: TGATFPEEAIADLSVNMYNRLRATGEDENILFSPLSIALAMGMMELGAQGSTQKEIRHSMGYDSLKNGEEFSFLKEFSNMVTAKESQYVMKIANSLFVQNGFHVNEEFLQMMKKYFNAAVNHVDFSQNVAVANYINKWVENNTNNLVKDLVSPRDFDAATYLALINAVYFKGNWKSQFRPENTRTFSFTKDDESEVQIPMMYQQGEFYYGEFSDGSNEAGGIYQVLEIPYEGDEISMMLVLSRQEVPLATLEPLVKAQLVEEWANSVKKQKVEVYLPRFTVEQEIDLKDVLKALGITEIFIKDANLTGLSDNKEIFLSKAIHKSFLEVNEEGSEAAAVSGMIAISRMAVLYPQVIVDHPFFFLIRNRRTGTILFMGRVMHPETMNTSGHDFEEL

[3] = biological target: plasmin (rat retina) (rat (endogenous in retina)); assay: co-IP; reciprocal: anti-plasmin antibody; human or rat retinal lysates from control and glaucoma samples; non-immune IgG as control; western blot for plasmin and neuroserpin; complex band under glaucomatous conditions
[4] = biological target: plasmin (human retina) (human (endogenous in retina)); assay: as above

binding [1]: binds
Molecule: plasmin (rat retina) (enzyme)

binding [2]: binds
Molecule: plasmin (human retina) (enzyme)

binding [3]: binds
B1: neuroserpin (rat retina) (protein, UniProt Q9JLD2 17-410)
chain: T1 sequence

binding [4]: binds
B2: neuroserpin (human retina) (protein, UniProt Q99574 17-410)
chain: T2 sequence
